In PubChem BioAssay AID651640 (Broad Institute, 2012):
Screen size: about 350,000 compounds; about 6,000 (1.7%) were called active. This list was built around the results that the source calls inconclusive (neither active nor inactive); the mix of calls is not that of the screen. Rule as the data show it: active = CPE inhibition above about 20% (passing the limit was not always enough); inconclusive = no clear call, values can overlap the other calls; tested in BHK-21 cells.

test: protection of cells from dengue 2 killing – plate reader, single concentration, primary screen (AID 651640); details: DENV2-infected cells, cytopathic effect rescue, at 9.99 µM, stronger effect = higher value;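 also: 0% = median of neutral control wells and 100% = median of positive control wells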

| SMILES | CPE inhibition |
| --- | --- |
| Cc1ccc([C@@H]2[C@@H]3C(=O)N(C)C(=O)[C@@H]3[C@]3(C)C(=O)N(Cc4ccc(-c5ccccc5)cc4)CC(=O)N23)o1 | active: 92.5% |
| O=C(CSc1ncnc2c1oc1ccccc12)Nc1cccc(C(F)(F)F)c1 | active: 36.5% |
| O=C(C[C@@H]1CC[C@H]2[C@@H](COC[C@@H](O)CN2C(=O)c2cccnc2)O1)NCc1ccc(-c2ccccc2)cc1 | active: 26.7% |
| c1ccc(COn2nnc3ccccc32)c(COn2nnc3ccccc32)c1 | inactive: 0.955% |
| C[C@@H]1CN([C@H](C)CO)C(=O)CCCn2cc(nn2)CO[C@H]1CN(C)C(=O)Nc1ccc(C(C)(C)C)cc1 | inconclusive: 52.1% |
| COc1ccc(NC(=O)CSc2nnc3ccc(-c4ccccn4)nn23)cc1 | inconclusive: 52.3% |
| CNC[C@H](O)c1ccc(O)c(O)c1 | inconclusive: 38.2% |
| O=C(C[C@@H]1CC[C@H]2[C@@H](COC[C@H](O)CN2Cc2ccccc2)O1)NCCc1ccccc1 | inconclusive: 67.6% |
| O=C(C[C@@H]1C[C@H]2c3cc(NC(=O)c4cccnc4)ccc3O[C@H]2[C@H](CO)O1)NCC1CC1 | inconclusive: 35.4% |
| CC1COCC(C)N1C(=O)c1cccnc1 (stereo unspecified) | inactive: 18.1% |
| CN1C(=O)c2cc(NC(=O)c3ccc(Cl)cc3)ccc2OC[C@H]2O[C@H](CC(=O)NCc3cccc(F)c3)CC[C@@H]21 | inconclusive: 24.7% |
| CC(=O)N/C(=C/c1ccc2c(c1)OCO2)C(=O)Nc1ccccc1 | inconclusive: 20.9% |
| C[C@H]1CN([C@@H](C)CO)C(=O)c2cc(C#CC3CC3)cnc2O[C@H]1CN(C)C(=O)Cc1ccccn1 | inactive: 1.69% |
| CCc1nnc(NC(=O)CSc2nccn2-c2cccc(C)c2)s1 | inconclusive: 34.9% |
| CO[C@@H](CN(C)S(=O)(=O)c1ccc(C)cc1)[C@@H](C)CN(Cc1ccccc1Cl)[C@@H](C)CO | inconclusive: 26.6% |
| Cc1cccn2c(=O)nc(SCC(=O)N3CCCCC3)nc12 | inconclusive: 33.1% |
| N#C[C@@H]1[C@H](c2ccccc2C2=CCCC2)[C@@H](CO)N1C(=O)C1CCCC1 | inactive: -13.8% |
| O=C(CCn1cccn1)Nc1ccc(-c2ccno2)cc1 | inconclusive: 32.4% |
| C[C@@H]1CN([C@H](C)CO)C(=O)c2cccc(NS(=O)(=O)c3cccs3)c2O[C@@H]1CN(C)Cc1ccc(-c2ccccc2)cc1 | inactive: -5.11% |
| CCC(=O)N1CC2(CN(Cc3ccc(F)cc3)C2)c2c(n(C)c3cc(OC)ccc23)[C@@H]1CO | active: 21.4% |
| COCCNC(=O)C[C@@H]1CC[C@@H]2[C@@H](COc3ccc(NC(=O)C4CCOCC4)cc3C(=O)N2C)O1 | active: 21.1% |

Copied from the list.
Under CPE inhibition, c1ccc(COn2nnc3ccccc32)c(COn2nnc3ccccc32)c1 shows inactive: 0.955%
Under CPE inhibition, CNC[C@H](O)c1ccc(O)c(O)c1 shows inconclusive: 38.2%
